Laboratory results taken from PMC7725820, “Heme biosynthesis depends on previously unrecognized acquisition of iron-sulfur cofactors in human amino-levulinic acid dehydratase” (Nature Communications, 2020).
Results are given in words; binding and its absence hold for the method and conditions named. Binding seen in cells or lysates may run through a third protein. Some results given as binding are weak or reduced against the parent protein; the word gives no strength. For some assays here: Where a sequence is shown, tags or fusion partners need not be part of it.

T1: endogenous cytosolic HSC20 (C-HSC20) (human (endogenous in HeLa)) (UniProt Q8IWL3)
T1 sequence: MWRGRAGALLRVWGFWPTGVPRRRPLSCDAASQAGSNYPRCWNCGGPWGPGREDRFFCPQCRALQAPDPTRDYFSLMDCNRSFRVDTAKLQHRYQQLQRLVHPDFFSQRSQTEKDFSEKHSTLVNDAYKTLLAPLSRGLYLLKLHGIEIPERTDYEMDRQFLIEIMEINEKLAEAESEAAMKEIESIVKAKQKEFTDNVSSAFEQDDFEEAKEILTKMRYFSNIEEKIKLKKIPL

T2: C-terminally FLAG/MYC-tagged AFR-AAA ALAD mutant (human) (UniProt P13716)
T2 sequence: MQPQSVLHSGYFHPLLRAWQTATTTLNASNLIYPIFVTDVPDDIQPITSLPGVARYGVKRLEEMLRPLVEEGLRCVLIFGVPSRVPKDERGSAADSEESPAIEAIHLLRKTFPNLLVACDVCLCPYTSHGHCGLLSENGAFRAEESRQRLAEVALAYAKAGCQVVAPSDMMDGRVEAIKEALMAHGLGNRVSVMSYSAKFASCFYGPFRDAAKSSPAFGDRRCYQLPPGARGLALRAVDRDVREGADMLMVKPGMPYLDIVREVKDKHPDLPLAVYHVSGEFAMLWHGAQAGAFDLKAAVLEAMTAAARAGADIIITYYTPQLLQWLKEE


Columns and labels:
[1] = molecular target: T1, endogenous cytosolic HSC20 (C-HSC20) (human (endogenous in HeLa)); assay: co-IP; endogenous proteins; cytosolic fraction of HeLa cells incubated with rabbit anti-HSC20 antibody coupled to amine-reactive resin, 4 °C overnight, acidic elution (Tris-glycine, pH 2.8), Western blot with anti-HSC20 and anti-ALAD
[2] = molecular target: T2, C-terminally FLAG/MYC-tagged AFR-AAA ALAD mutant (human); assay: co-IP; whole-cell lysates of HeLa cells transfected with FLAG/MYC-tagged ALAD, anti-FLAG M2 affinity gel, 4 °C overnight, acidic elution (Tris-glycine, pH 2.8), Western blot

binding [1] | binding [2] | Molecule
binds |  | human aminolevulinic acid dehydratase (ALAD), endogenous (from UniProt P13716 1-330) (enzyme)
 | no binding | endogenous cytosolic HSC20 (C-HSC20) (protein, UniProt Q8IWL3 1-235) MWRGRAGALLRVWGFWPTGVPRRRPLSCDAASQAGSNYPRCWNCGGPWGPGREDRFFCPQCRALQAPDPTRDYFSLMDCNRSFRVDTAKLQHRYQQLQRLVHPDFFSQRSQTEKDFSEKHSTLVNDAYKTLLAPLSRGLYLLKLHGIEIPERTDYEMDRQFLIEIMEINEKLAEAESEAAMKEIESIVKAKQKEFTDNVSSAFEQDDFEEAKEILTKMRYFSNIEEKIKLKKIPL
